PubChem BioAssay AID1259405 – NCATS | 2018

Assay: 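Knock-downs that lift recombinant protein yield in hamster ovary cells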 (primary screen)
Cell system: Chinese hamster CHO-K1 ovary cells with stable secreted eGFP expression
Knock-down reagent: single siRNA against mouse genes, 0.8 pmol siRNA per well (2 µl of 400 nM stock)
Timing: 3 days
Measurement: 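Per-well intracellular GFP measured by laser scanning cytometry, plus viability from ATP luminescence, each relative to plate median of non-targeting control wells, in %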
Direction: GFP, % of control: higher = more GFP per well, higher productivity; viability (ATP), % of control: higher = more viable cells (more ATP)
Rule for the call: 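a knock-down is called active if GFP reaches 120% or more of non-targeting control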
Shown is one part, drawn at random, of about 50,000 deposited reagents. About 4,000 of them (8%) were called active. 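Mouse siRNA library applied to hamster cells; one well for each siRNA.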

gene,PubChem SID,"GFP, % of control","viability (ATP), % of control",outcome
Pbp2,SID363545699,14.5,13.2,inactive
Pbp2,SID363549212,75.9,81.2,inactive
Pbp2,SID363563018,79.6,77.2,inactive
Dbnl,SID363541120,74.2,57.1,inactive
Dbnl,SID363555747,77.4,82.4,inactive
Dbnl,SID363566036,76.3,73.1,inactive
Pear1,SID363582463,119,121,inactive
Pear1,SID363584223,66.4,77.7,inactive
Urod,SID363572922,34.2,69.4,inactive
Urod,SID363577498,96.4,89,inactive
Urod,SID363581018,26.7,33.8,inactive
Fgb,SID363572480,105,64.6,inactive
Fgb,SID363577760,77.5,60.8,inactive
Fgb,SID363581984,50.2,86.8,inactive
Hmx1,SID363546119,27.2,38,inactive
Hmx1,SID363549632,93.2,90.2,inactive
Hmx1,SID363563438,69.9,58.8,inactive
Sox7,SID363573832,87.9,98.5,inactive
Sox7,SID363581576,73.3,51.5,inactive
Sox7,SID363584040,67.1,103,inactive
4933427E11Rik,SID363552145,72.8,88,inactive
4933427E11Rik,SID363585281,78.1,109,inactive
4933427E11Rik,SID363585632,80.8,98.6,inactive
Airim,SID363542832,77.6,57.7,inactive
Airim,SID363546349,64.8,49.3,inactive
Airim,SID363548105,101,108,inactive
Pofut3,SID363570643,157,117,active
Pofut3,SID363579443,95,135,inactive
Pofut3,SID363583315,88,120,inactive

Continued (8 carried over from the part before).
gene,PubChem SID,"GFP, % of control","viability (ATP), % of control",outcome
4933427E11Rik,SID363585281,78.1,109,inactive
4933427E11Rik,SID363585632,80.8,98.6,inactive
Airim,SID363542832,77.6,57.7,inactive
Airim,SID363546349,64.8,49.3,inactive
Airim,SID363548105,101,108,inactive
Pofut3,SID363570643,157,117,active
Pofut3,SID363579443,95,135,inactive
Pofut3,SID363583315,88,120,inactive
Sprr2g,SID363556489,83.3,89.8,inactive
Sprr2g,SID363586939,159,149,active
Sprr2g,SID363589047,115,135,inactive
Vmn1r44,SID363544907,48,37.5,inactive
Vmn1r44,SID363551235,88.5,56.8,inactive
Vmn1r44,SID363557784,72,95.5,inactive
Hdhd3,SID363545582,69.8,73.9,inactive
Hdhd3,SID363549095,83.1,63.3,inactive
Hdhd3,SID363562901,38.3,53.2,inactive
5330438D12Rik,SID363552334,87.9,59,inactive
5330438D12Rik,SID363585470,69,97.4,inactive
5330438D12Rik,SID363585821,125,145,active
Fbxw9,SID363540076,62.2,72.6,inactive
Fbxw9,SID363561377,74.5,62.9,inactive
Fbxw9,SID363564413,84.5,115,inactive
Slc22a30,SID363547714,86.3,59.8,inactive
Slc22a30,SID363558483,45.5,93.6,inactive
Slc22a30,SID363560241,51.4,50.7,inactive
Ythdf2,SID363556790,36.4,35.2,inactive
Ythdf2,SID363563694,45.9,61.5,inactive
Ythdf2,SID363587240,70.9,98.8,inactive
Pou1f1,SID363573552,72.9,72.7,inactive
Pou1f1,SID363581296,91.7,84.3,inactive
Pou1f1,SID363583760,55.2,72.1,inactive
Parvg,SID363554714,67.1,61,inactive
Parvg,SID363568161,66.4,72.6,inactive
Parvg,SID363586220,70.2,53.8,inactive
Birc5,SID363556698,51,35.9,inactive
Birc5,SID363563602,75.5,71.4,inactive
Birc5,SID363587148,114,70.3,inactive
